At least one read-out could not be matched to a standard name with certainty.
Test: In vivo bioavailability study, oral administration, plasma LC-MS/MS
Parameters: species or system male beagle dogs
Details: dog

With `Cc1cc(/C=C/C#N)cc(C)c1Nc1ccnc(Nc2ccc(C#N)cc2)n1` [Compound of formula (I-a)] the “in vivo bioavailability compared to the free base” value was “significant improved”.
